Data published in patent EP4782464A1 (Nanjing Legend Biotech Co., Ltd., dated 2026).
These are yes or no findings as the source states them, for the method shown. Some binding calls cover weakened binding; strength is not graded here.

Amino acid sequences for entries named in this document (tags omitted). Residues count along the entry.
UniProt Q3UWA6, residues 20-1072: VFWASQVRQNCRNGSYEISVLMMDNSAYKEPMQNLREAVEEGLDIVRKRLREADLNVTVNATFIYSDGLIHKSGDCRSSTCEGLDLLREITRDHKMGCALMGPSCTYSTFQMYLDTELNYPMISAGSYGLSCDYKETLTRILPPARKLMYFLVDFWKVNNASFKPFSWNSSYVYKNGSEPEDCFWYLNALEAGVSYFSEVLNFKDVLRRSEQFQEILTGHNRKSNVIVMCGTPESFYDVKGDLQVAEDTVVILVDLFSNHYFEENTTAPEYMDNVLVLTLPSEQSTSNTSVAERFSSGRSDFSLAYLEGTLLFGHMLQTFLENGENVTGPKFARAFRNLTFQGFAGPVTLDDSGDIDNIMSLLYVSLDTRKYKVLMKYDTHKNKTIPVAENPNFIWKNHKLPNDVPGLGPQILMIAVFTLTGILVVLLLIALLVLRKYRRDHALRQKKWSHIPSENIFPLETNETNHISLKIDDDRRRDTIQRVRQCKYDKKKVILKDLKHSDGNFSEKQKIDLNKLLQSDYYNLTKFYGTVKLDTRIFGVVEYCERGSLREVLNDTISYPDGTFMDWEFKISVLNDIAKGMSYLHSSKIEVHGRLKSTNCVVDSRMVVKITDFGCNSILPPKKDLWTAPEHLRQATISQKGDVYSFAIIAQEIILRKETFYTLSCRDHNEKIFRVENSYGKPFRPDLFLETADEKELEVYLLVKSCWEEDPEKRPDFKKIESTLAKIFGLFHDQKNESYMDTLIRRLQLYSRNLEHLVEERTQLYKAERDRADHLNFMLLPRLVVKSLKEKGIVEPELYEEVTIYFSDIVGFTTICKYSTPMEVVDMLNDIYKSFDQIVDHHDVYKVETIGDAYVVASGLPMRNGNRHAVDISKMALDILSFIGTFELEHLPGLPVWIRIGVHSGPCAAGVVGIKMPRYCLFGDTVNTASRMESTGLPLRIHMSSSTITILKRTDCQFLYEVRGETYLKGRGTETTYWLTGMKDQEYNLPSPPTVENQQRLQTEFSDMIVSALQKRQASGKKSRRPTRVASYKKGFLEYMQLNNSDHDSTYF

Columns and labels:
[1] = target: mouse GCC (guanylyl cyclase C, GUCY2C) on cells (mouse) (UniProt Q3UWA6); experiment: flow cytometry on 293T-mouse GCC.Luc cells
[2] = target: mouse GCC (guanylyl cyclase C, GUCY2C) on cells (mouse) (UniProt Q3UWA6); experiment: immunohistochemistry at 0.5 µg/mL on mouse small intestine sections
[3] = target: mouse GCC (guanylyl cyclase C, GUCY2C) on cells (mouse) (UniProt Q3UWA6); experiment: immunohistochemistry at 0.5 µg/mL on mouse small intestine sections (legend of FIG. 3)
[4] = target: mouse GCC (guanylyl cyclase C, GUCY2C) on cells (mouse) (UniProt Q3UWA6); experiment: flow cytometry on 293T-mouse GCC.Luc cells (legend of FIG. 2B)

Row | binding [1] | binding [2] | binding [3] | binding [4] | Binder
1 | binds | binds | binds | binds | 22G5-Rabbit IgG (antibody, V domains shown, Recombinant rabbit IgG (IgG1k) expressed in HD CHO-S cells: 22G5 VH-Rabbit IgG CH1-CH2-CH3 and 22G5 VL-Rabbit IgG CL; also called 22G5-Rabbit IgG antibody; 22G5 antibody) VH: QSVEESGGRLVTPGTPLTLTCTVSGIDLSSYAMTWVRQAPGEGLEWIGTINTISTAYYANWAKGRFTISKTSTTVDLKIASPTTEDTATYFCARDHGYYDVWGQGTLVTVSS VL: AQVLTQTPSSVSAAVGGTVTINCQASQSVYKNNYLSWYQQKPGQPPRLLIYDASTLASGVPSRFKGSGSGTQFTLTISGVQCDDAATYYCLGEFSCSSGDCAAFGGGTEVVVKG
2 | binds |  |  |  | PF0098-Rabbit IgG (antibody, V domains shown, also called PF0098-Rabbit IgG antibody) VH: QVQLQQPGAELVKPGASVKLSCKASGYTFTSYWMHWVKQRPGQGLEWIGEIKPSNGLTNYIEKFKNKATLTVDKSATTAYMQLSSLTAEDSAVYYCTRTITTTEGYWFFDVWGAGTTVTVSS VL: DIVLTQSPASLAVSLGQRATISCRASESVDYYGTSLMQWYQQKPGQPPKLLIYAASNVESGVPARFSGSGSGTDFSLNIHPVEEDDIAMYFCQQTRKVYTFGGGTKLEIKG
